Publication PMC6594655
Results are given in words; binding and its absence hold for the method and conditions named. Binding seen in cells or lysates may run through a third protein. Some results given as binding are weak or reduced against the parent protein; the word gives no strength.

Amino acid sequences for entries named in this document (tags omitted). Residues count along the entry.
UniProt Q8JUX6, residues 1334-1863: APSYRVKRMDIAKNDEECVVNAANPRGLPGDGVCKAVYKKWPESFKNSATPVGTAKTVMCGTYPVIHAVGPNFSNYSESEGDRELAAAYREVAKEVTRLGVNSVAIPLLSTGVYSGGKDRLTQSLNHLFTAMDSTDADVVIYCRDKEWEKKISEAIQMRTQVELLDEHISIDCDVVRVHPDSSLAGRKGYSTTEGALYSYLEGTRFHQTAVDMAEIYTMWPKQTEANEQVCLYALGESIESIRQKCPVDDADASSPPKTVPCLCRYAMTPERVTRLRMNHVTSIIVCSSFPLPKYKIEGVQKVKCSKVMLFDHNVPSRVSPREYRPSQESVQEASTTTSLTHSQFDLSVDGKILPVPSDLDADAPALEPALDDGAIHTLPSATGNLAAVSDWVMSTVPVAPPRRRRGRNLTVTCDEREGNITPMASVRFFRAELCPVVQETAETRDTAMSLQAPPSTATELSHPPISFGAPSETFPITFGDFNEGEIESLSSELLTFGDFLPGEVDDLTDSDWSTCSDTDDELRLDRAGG
UniProt Q13283: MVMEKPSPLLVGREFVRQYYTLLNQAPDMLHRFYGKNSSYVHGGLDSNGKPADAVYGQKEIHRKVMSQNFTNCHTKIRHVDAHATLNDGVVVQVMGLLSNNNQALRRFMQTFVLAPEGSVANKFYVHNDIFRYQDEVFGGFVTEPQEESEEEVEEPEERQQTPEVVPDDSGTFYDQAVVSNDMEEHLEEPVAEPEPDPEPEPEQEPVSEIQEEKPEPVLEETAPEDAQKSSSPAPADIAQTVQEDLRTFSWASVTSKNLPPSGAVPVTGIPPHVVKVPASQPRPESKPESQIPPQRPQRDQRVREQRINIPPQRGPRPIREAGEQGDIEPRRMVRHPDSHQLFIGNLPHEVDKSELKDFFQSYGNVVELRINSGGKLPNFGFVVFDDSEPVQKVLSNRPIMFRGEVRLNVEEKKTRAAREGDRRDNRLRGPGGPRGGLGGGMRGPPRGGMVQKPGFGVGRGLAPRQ

Target: BAP-tagged CHIKV nsP3 (chikungunya virus) (UniProt Q8JUX6)
Assay: pull-down

For “GFP-G3BP1 WT (from UniProt Q13283 1-466)”, the binding was “binds”.
